# According to article PMC5996148:
# Protein sequences, listed by entry. Tags and fused reporters are not part of them. Lines headed by an entry give the natural chain unless they say otherwise; changes in a name come on top.
# UniProt Q9BTC0, whole entry: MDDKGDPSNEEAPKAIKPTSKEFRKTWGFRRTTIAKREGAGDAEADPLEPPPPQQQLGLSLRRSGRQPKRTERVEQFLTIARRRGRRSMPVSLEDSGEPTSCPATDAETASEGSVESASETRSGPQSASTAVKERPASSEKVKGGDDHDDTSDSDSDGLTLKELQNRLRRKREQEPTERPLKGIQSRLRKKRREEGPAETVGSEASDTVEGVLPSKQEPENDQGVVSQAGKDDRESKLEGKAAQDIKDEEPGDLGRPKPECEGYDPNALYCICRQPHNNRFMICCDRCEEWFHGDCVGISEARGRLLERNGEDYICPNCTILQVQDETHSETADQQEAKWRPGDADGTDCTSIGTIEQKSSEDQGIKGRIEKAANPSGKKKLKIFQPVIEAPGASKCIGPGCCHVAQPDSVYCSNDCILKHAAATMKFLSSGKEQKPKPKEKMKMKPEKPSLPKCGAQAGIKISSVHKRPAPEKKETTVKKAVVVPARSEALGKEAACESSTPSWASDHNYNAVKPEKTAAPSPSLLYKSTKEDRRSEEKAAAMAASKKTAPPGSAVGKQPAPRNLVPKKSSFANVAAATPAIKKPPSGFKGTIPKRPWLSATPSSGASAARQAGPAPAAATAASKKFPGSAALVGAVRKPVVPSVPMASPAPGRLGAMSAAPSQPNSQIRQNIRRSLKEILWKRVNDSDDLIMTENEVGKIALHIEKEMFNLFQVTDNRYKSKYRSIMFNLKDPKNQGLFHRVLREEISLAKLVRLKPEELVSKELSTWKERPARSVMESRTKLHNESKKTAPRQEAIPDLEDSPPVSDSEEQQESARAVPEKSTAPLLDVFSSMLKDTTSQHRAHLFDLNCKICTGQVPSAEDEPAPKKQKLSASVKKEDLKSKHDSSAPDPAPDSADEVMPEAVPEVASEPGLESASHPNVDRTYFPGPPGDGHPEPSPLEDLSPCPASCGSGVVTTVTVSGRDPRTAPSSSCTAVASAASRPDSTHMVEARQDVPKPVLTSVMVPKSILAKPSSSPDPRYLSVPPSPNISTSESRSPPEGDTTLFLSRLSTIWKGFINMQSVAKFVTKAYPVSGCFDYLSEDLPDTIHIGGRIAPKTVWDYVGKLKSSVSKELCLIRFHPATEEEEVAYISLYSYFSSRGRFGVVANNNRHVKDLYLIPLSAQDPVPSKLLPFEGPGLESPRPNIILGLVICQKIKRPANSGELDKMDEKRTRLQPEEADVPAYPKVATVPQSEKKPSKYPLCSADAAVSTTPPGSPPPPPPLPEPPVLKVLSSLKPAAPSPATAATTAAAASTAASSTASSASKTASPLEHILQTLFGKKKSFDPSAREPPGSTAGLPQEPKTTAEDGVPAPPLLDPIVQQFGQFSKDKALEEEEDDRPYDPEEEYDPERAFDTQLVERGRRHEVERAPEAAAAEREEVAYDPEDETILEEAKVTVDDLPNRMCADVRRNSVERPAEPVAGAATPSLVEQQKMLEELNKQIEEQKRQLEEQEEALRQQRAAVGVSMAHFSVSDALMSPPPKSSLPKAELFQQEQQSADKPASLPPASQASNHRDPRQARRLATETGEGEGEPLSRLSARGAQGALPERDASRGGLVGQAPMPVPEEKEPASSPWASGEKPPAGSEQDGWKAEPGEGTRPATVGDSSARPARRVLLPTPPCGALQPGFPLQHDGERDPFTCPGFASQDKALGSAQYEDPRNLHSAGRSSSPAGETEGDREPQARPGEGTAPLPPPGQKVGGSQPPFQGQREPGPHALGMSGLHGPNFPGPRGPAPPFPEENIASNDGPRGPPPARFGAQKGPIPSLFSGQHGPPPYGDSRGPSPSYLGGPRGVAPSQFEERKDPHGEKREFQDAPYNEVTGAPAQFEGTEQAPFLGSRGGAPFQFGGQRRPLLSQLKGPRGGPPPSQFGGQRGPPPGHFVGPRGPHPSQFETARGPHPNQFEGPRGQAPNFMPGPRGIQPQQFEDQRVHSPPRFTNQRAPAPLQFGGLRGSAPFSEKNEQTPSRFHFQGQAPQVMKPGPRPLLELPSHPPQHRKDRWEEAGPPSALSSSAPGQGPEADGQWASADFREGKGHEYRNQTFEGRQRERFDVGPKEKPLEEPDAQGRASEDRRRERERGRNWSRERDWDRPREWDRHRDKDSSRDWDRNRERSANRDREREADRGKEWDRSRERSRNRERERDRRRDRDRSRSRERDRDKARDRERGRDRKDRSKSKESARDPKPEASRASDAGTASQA
# UniProt Q9UNQ2: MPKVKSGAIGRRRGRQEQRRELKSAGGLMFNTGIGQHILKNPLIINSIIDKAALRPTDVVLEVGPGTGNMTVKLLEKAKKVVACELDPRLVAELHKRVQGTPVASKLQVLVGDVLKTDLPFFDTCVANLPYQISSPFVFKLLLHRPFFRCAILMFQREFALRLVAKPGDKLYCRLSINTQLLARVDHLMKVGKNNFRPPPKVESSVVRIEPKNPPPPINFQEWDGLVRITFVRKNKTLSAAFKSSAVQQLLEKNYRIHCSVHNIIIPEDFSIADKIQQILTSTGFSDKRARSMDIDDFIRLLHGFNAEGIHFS
# UniProt P04053: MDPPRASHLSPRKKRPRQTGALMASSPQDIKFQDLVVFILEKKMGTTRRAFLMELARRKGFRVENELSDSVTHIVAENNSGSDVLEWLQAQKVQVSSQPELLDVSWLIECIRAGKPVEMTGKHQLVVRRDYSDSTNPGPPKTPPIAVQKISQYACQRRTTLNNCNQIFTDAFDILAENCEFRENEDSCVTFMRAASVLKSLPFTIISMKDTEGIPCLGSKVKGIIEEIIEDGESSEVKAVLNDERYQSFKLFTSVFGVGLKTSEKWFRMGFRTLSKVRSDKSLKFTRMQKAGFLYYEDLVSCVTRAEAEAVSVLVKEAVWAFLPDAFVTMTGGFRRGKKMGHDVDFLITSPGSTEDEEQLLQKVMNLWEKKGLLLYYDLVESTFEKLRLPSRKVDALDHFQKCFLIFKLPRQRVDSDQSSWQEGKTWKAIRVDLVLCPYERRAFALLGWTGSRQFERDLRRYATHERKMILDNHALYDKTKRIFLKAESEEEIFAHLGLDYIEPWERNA
# “And” between values parts separate entries of the source, which are not always exact repeats. Identical values can stand only once. This is one part of the list. For some assays here: The exact form of the protein is not confirmed.
# Legend:
# Assay in all cases: protein microarray (ProtoArray v5.0), streptavidin-Alexa Fluor 647
# Conditions in all cases: 3'-biotin; 20 mM Tris (pH 7.5), 5 mM MgCl2, 100 mM KCl, 0.1% Tween-20, A/T-rich and random oligonucleotide blockers; temperature not stated; high values mean tight binding
# [1] = test system: DGCR6 (human)
# [2] = test system: DIABLO (human)
# [3] = target: DIDO1 (UniProt Q9BTC0)
# [4] = target: DIMT1L (UniProt Q9UNQ2)
# [5] = test system: DIP (human)
# [6] = test system: DKFZP434K028 (human)
# [7] = test system: DKFZP564O0823 (human)
# [8] = test system: DKFZp434B1231 (human)
# [9] = test system: DLK2 (human)
# [10] = test system: DMD (human)
# [11] = test system: DMPK (human)
# [12] = test system: DNA replication complex GINS protein PSF3 (human)
# [13] = test system: DNA-directed RNA polymerase II subunit RPB11-a (human)
# [14] = test system: DNAJB8 (human)
# [15] = test system: DNAJC12 (human)
# [16] = test system: DNAJC5G (human)
# [17] = test system: DNAL1 (human)
# [18] = target: T1, DNAL4 (UniProt O96015)
# T1 sequence: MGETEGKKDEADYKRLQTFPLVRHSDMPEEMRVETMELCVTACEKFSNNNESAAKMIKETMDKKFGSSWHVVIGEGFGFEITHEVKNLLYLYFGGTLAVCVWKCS
# [19] = target: DNTT (UniProt P04053)
# [20] = test system: DPCR1 (human)
sequence,measurement,setting,value
GGTGACAGGGGTATGGGGAGGGG [G4-2 biotinylated (Ct1)],binding signal,[1],-0.402 z-score
same,binding signal,[2],-0.395 z-score
same,binding signal,[3],4.25 z-score
same,binding signal,[4],6.79 z-score
same,binding signal,[5],-0.378 z-score
same,binding signal,[6],4.33 z-score
same,binding signal,[7],-0.379 z-score
same,binding signal,[8],-0.384 z-score
same,binding signal,[9],-0.36 z-score
same,binding signal,[10],-0.391 z-score and -0.398 z-score
same,binding signal,[11],-0.379 z-score
same,binding signal,[12],-0.398 z-score
same,binding signal,[13],-0.395 z-score
same,binding signal,[14],-0.365 z-score
same,binding signal,[15],-0.378 z-score
same,binding signal,[16],-0.382 z-score
same,binding signal,[17],-0.366 z-score
same,binding signal,[18],-0.387 z-score
same,binding signal,[19],5.82 z-score
same,binding signal,[20],-0.375 z-score
